Patent publication US11242354B2, “4-sulfur substituted podophyllotoxin derivative and preparation method therefor and use thereof” (priority 2017, dated 2022)
Some of these results come from one statement about several compounds together. At least one structure is not confirmed: it was looked up by name or label, or the drawing left a doubt.

Experiments:
Settings in all cases: vs podophyllotoxin, 4-demethylepipodophyllotoxin (and etoposide)
[1] = tested on: human normal hepatocytes HL-7702; test: MTT test on human normal hepatocytes HL-7702
HeLa = test: MTT test for inhibition of tumor cells, HeLa; assay type: cell-based
HepG2 = test: MTT test for inhibition of tumor cells, HepG2; assay type: cell-based

## COc1cc(C2c3cc4c(cc3C(Sc3nc5cc(F)ccc5o3)C3COC(=O)C23)OCO4)cc(OC)c1OC (stereo not drawn) [Compound 9, 4β-S-(5-fluorobenzoxazol-2)-podophyllotoxin]
[1]
  antitumor activity on HL-7702 compared with control compounds: obviously improved
  toxicity on HL-7702 cell line compared with control compounds: significantly lower
HeLa
  antitumor activity on HeLa compared with control compounds: obviously improved
HepG2
  antitumor activity on HepG2 compared with control compounds: obviously improved
